Source: patent US5759827A, “Acylated oligopeptides for transfecting cells” (Hoffmann-La Roche Inc., priority 1995, dated 1998)
For some assays here: At least one peptide structure holds a part that was inferred or is arguable (an end, a ring closure or a residue). For some assays here: At least one compound was matched to its structure with a doubt left. Square brackets hold non-standard residues; d marks the D form. Peptide text beside a SMILES is read from it. * marks the point of attachment. Palmitoyl = CCCCCCCCCCCCCCCC(=O)*; dDab = NCC[C@@H](N)C(=O)O; Dab = NCC[C@H](N)C(=O)O; NHNH2 = NN*

Columns and labels:
Format in all cases: cell-based
COS-1 cells = test: Transfection efficiency in COS-1 cells with a beta-galactosidase encoding plasmid; conditions: formulated as in example 1 (DOPE liposomes added to compound/DNA), 48 h after transfection
Experimental: Dioleoyl phosphatidylethanolamine (DOPE, Avanti Polar Lipids Inc.) liposomes were prepared by drying under vacuum the lipid in solution in chloroform and then rehydrating the lipid film with 30 mM Tris Cl pH 8.5. Final lipid concentration was 2 mM. The lipid dispersion was subsequently sonicated for 10-15 min in a sonicator bath (Elgasonic, 50 kHz).
Twenty μg of plasmid DNA were diluted with 260 μl of distilled, sterile water in a polystyrene sterile tube. […] 140 μl of DOPE liposomes were then slowly added, drop by drop, to obtain a molar ratio between DOPE and Nγ-palmitoyl-D-(α,γ-diaminobutyryl)-L-(α,γ-diaminobutyric acid) hydrazide of 5:1. The complex was carefully mixed. The preparation was allowed to stand at room temperature during about 5 min and was then added to COS-1 cells grown in 96-well plates.
Mixed micelles of DOPE (2 μmoles) and dicaproyl phosphatidylcholine (15 μmotes) were prepared by drying the lipids under vacuum and then rehydrating the lipid film with 1 ml of 30 mM TrisCl buffer pH 8.5. Twenty μg of plasmid pCH110 were diluted with 260 μl of distilled water in a polystyrene sterile tube. […] 140 μl of DOPE/dicyproyl PC mixed micelles were then slowly added to obtain a molar ratio between DOPE and Nγ-palmitoyl-D-(α,γ-diaminobutyryl)-L-(α,γ-diaminobutyric acid) hydrazide of 5:1. The complex was carefully mixed. […]

HeLa = test: Transfection efficiency with a luciferase encoding vector, HeLa cell-line; conditions: 48 h after transfection
Experimental: (§1) A transfecting complex with Nγ-palmitoyl-D-(α,γ-diaminobutyryl)-L-(α,γ-diaminobutyric acid) hydrazide (compound A) was prepared as described in example 1. Lipofectamine™ complex was prepared following manufacturer's instructions. The transfection efficiency of both systems was compared in various cell-lines using a luciferase encoding vector.
(§2) Cells were transfected with a luciferase encoding plasmid and luciferase activity was measured 48 h after transfection. Results are expressed as relative light units.

293-EBNA = test: Transfection efficiency with a luciferase encoding vector, 293-EBNA cell-line; conditions: 48 h after transfection
Experimental: as §1, §2

LM tk- = test: Transfection efficiency with a luciferase encoding vector, LM tk- cell-line; conditions: 48 h after transfection
Experimental: as §1, §2

CHO K1 = test: Transfection efficiency with a luciferase encoding vector, CHO K1 cell-line; conditions: 48 h after transfection
Experimental: as §1, §2

Structure (SMILES) | Beta-galactosidase activity 1 μg DNA/well (COS-1 cells) | luciferase activity (HeLa) | luciferase activity (293-EBNA) | luciferase activity (LM tk-) | luciferase activity (CHO K1)
CCCCCCCCCCCCCCCC(=O)N[C@@H](CCCN)C(=O)N[C@@H](CCCN)C(=O)N[C@@H](CCCN)C(=O)N[C@@H](CCCN)C(=O)N[C@@H](CCCN)C(=O)N[C@@H](CCCN)C(=O)OCC [N^α palmitoyl-(L ornithyl)5 -L ornithine ethyl ester] | 12210 μunits of beta-galactosidase p | – | – | – | –
CCCCCCCCCCCCCCCC(=O)NCC[C@@H](N)C(=O)N[C@@H](CCN)C(=O)NN [cpd A, Nγ-palmitoyl-D-(α,γ-diaminobutyryl)-L-(α,γ-diaminobutyric acid) hydrazide] (H-[dDab](Palmitoyl)-[Dab]-NHNH2) | – | 1.0 10^3 relative light units | 5.0 10^5 relative light units | 5.7 10^5 relative light units | 1.6 10^6 relative light units
